Taken from: PubChem BioAssay AID504793 (Drosophila RNAi Screening Center, 2011)
Assay: 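Knock-downs allowing continued mitosis even though DNA is damaged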 (primary screen). Cells: Drosophila S2R+ cells. Reagents: long dsRNA against Drosophila genes, about 0.25 µg dsRNA per well. Timing: 4 days of dsRNA, then 4 hours of drug before read-out. Challenge: doxorubicin 0.5 µM for 4 hours to cause double-strand breaks, in cells also given a low, harmless dose of dsRNA against nbs to sensitise the assay. Measurement: 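Mitotic index as the number of phospho-histone H3-positive cells in each well following doxorubicin, given as raw counts without normalisation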. Reading the numbers: mitotic cells: higher = more cells in mitosis, weaker G2 arrest. Hit rule: 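Genes are called active only when high mitotic counts were reproduced with independent dsRNAs and mitosis was checked for delay without damage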. Calls: active = confirmed in follow-up tests; inactive = not confirmed.
The deposit covers about 23,000 reagents; this is an unselected part of those that have a named target and a result. Over the whole deposit, 62 (0.27%) got an active call. 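Calls come from follow-up tests whose scores are not deposited, so confirmed genes may have low counts here; counts are not normalised per plate.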 The raw values are shown without normalisation. Reagents against one gene are numbered here. A plus sign joins genes that one reagent is predicted to hit.

| gene | reagent | mitotic cells, replicate 1 | call |
| --- | --- | --- | --- |
| TTLL12 | 1 | 7 | inactive |
| phr | 1 | 6 | inactive |
| Ets96B | 1 | 16 | inactive |
| Ets96B | 2 | 5 | inactive |
| CG5194 | 1 | 9 | inactive |
| CG7368 | 1 | 9 | inactive |
| CG7368 | 2 | 7 | inactive |
| CG7368 | 3 | 2 | inactive |
| CG7264 | 1 | 2 | inactive |
| CG7264 | 2 | 1 | inactive |
| fat-spondin | 1 | 2 | inactive |
| Chi | 1 | 5 | inactive |
| Chi | 2 | 8 | inactive |
| CG34448 | 1 | 5 | inactive |
| Prosalpha5 | 1 | 97 | inactive |
| CG5681 | 1 | 5 | inactive |
| CG5681 | 2 | 3 | inactive |
| dwg | 1 | 10 | inactive |
| dwg | 2 | 10 | inactive |
| CG6418 | 1 | 8 | inactive |
| CG6418 | 2 | 3 | inactive |
| RfC3 | 1 | 7 | inactive |
| CG6834 | 1 | 5 | inactive |
| CG6834 | 2 | 10 | inactive |
| Ald2 | 1 | 19 | inactive |
| Ald2 | 2 | 3 | inactive |
| Gasp | 1 | 8 | inactive |
| CG9010 | 1 | 4 | inactive |
| CCT5 | 1 | 196 | inactive |
| CCT5 | 2 | 40 | inactive |
| Hr83 | 1 | 2 | inactive |
| Hr83 | 2 | 5 | inactive |
| CG13876 | 1 | 10 | inactive |
| slx1 | 1 | 4 | inactive |
| REPTOR-BP | 1 | 9 | inactive |
| RYBP | 1 | 11 | inactive |
| RYBP | 2 | 2 | inactive |
| lola | 1 | 13 | inactive |
| lola | 2 | 7 | inactive |
| lola | 3 | 10 | inactive |
| lola | 4 | 16 | inactive |
| lola | 5 | 6 | inactive |
| lola | 6 | 4 | inactive |
| lola | 7 | 3 | inactive |
| lola | 8 | 13 | inactive |
| lola | 9 | 9 | inactive |
| lola | 10 | 10 | inactive |
| lola | 11 | 26 | inactive |
| CG14893 | 1 | 5 | inactive |
| Max | 1 | 4 | inactive |
| CG15605 | 1 | 4 | inactive |
| CG13305 | 1 | 5 | inactive |
| ProtB | 1 | 2 | inactive |
| ProtB | 2 | 9 | inactive |
| CG30100 + CG42372 | 1 | 9 | inactive |
| CG13907 | 1 | 6 | inactive |
| CG13907 | 2 | 4 | inactive |
| CG12817 | 1 | 7 | inactive |
| wus | 1 | 3 | inactive |
| wat | 1 | 4 | inactive |
| CG11883 | 1 | 10 | inactive |
| Orc2 | 1 | 5 | inactive |
| Mlc2 | 1 | 6 | inactive |
| Mlc2 | 2 | 10 | inactive |
| Lcp65Ae | 1 | 8 | inactive |
| FBXO11 | 1 | 11 | inactive |
| Strip | 1 | 9 | inactive |
| Strip | 2 | 5 | inactive |
| ste24b | 1 | 4 | inactive |
| ste24b | 2 | 3 | inactive |
| CG32369 | 1 | 4 | inactive |
| CG32369 | 2 | 4 | inactive |
| CG32369 | 3 | 4 | inactive |
| Cbp20 | 1 | 14 | inactive |
| Nos | 1 | 8 | inactive |

Part of the list above, set out differently.
{"gene": "Mlc2", "reagent": 1, "mitotic cells, replicate 1": 6, "call": "inactive"}
{"gene": "Mlc2", "reagent": 2, "mitotic cells, replicate 1": 10, "call": "inactive"}
{"gene": "Lcp65Ae", "reagent": 1, "mitotic cells, replicate 1": 8, "call": "inactive"}
{"gene": "FBXO11", "reagent": 1, "mitotic cells, replicate 1": 11, "call": "inactive"}
{"gene": "Strip", "reagent": 1, "mitotic cells, replicate 1": 9, "call": "inactive"}
{"gene": "Strip", "reagent": 2, "mitotic cells, replicate 1": 5, "call": "inactive"}
{"gene": "ste24b", "reagent": 1, "mitotic cells, replicate 1": 4, "call": "inactive"}
{"gene": "ste24b", "reagent": 2, "mitotic cells, replicate 1": 3, "call": "inactive"}
{"gene": "CG32369", "reagent": 1, "mitotic cells, replicate 1": 4, "call": "inactive"}
{"gene": "CG32369", "reagent": 2, "mitotic cells, replicate 1": 4, "call": "inactive"}
{"gene": "CG32369", "reagent": 3, "mitotic cells, replicate 1": 4, "call": "inactive"}
